No constants are given. Whether binding was seen depends on the method and setting. In cells and extracts the contact can be indirect. Binding calls can cover weak binding; strength is not graded here. Where a sequence is shown, tags or fusion partners need not be part of it.

Experimental findings from publication PMC12411612 are described below.

Assay [1] deals with Flag-myocardin (adenovirus, in T/G HA-VSMCs) (not stated (human myocardin cDNA cloned for the plasmids)). Briefly: co-IP; nuclear extracts of T/G HA-VSMCs infected with Flag-myocardin adenovirus; 300 µg extract, antibody at 4 °C overnight, protein-A/G agarose, washed three times with RIPA lysis buffer; unspecific IgG as control; also with Ad-PARP1 or Ad-mut-PARP1 infection.
In the next assay the target is His-myocardin (human). Briefly: co-IP; HEK293T cells transfected at once with pcDNA3.1-His-myocardin, p3×FLAG-CMV9-PARP1 and pcDNA-3.1-HA-SRF; co-IP with anti-tag antibodies.

B1: SRF (endogenous, T/G HA-VSMC) (protein, UniProt P11831 1-508)
chain: MLPTQAGAAAALGRGSALGGSLNRTPTGRPGGGGGTRGANGGRVPGNGAGLGPGRLEREAAAAAATTPAPTAGALYSGSEGDSESGEEEELGAERRGLKRSLSEMEIGMVVGGPEASAAATGGYGPVSGAVSGAKPGKKTRGRVKIKMEFIDNKLRRYTTFSKRKTGIMKKAYELSTLTGTQVLLLVASETGHVYTFATRKLQPMITSETGKALIQTCLNSPDSPPRSDPTTDQRMSATGFEETDLTYQVSESDSSGETKDTLKPAFTVTNLPGTTSTIQTAPSTSTTMQVSSGPSFPITNYLAPVSASVSPSAVSSANGTVLKSTGSGPVSSGGLMQLPTSFTLMPGGAVAQQVPVQAIQVHQAPQQASPSRDSSTDLTQTSSSGTVTLPATIMTSSVPTTVGGHMMYPSPHAVMYAPTSGLGDGSLTVLNAFSQAPSTMQVSHSQVQEPGGVPQVFLTASSGTVQIPVSAVQLHQMAVIGQQAGSSSNLTELQVVNLDTAHSTKSE
Regarding B1, the binding result in assay [1] is given as “binds”.

B2: HA-SRF (pcDNA-3.1-HA-SRF), serum response factor (protein, UniProt P11831 1-508)
chain: MLPTQAGAAAALGRGSALGGSLNRTPTGRPGGGGGTRGANGGRVPGNGAGLGPGRLEREAAAAAATTPAPTAGALYSGSEGDSESGEEEELGAERRGLKRSLSEMEIGMVVGGPEASAAATGGYGPVSGAVSGAKPGKKTRGRVKIKMEFIDNKLRRYTTFSKRKTGIMKKAYELSTLTGTQVLLLVASETGHVYTFATRKLQPMITSETGKALIQTCLNSPDSPPRSDPTTDQRMSATGFEETDLTYQVSESDSSGETKDTLKPAFTVTNLPGTTSTIQTAPSTSTTMQVSSGPSFPITNYLAPVSASVSPSAVSSANGTVLKSTGSGPVSSGGLMQLPTSFTLMPGGAVAQQVPVQAIQVHQAPQQASPSRDSSTDLTQTSSSGTVTLPATIMTSSVPTTVGGHMMYPSPHAVMYAPTSGLGDGSLTVLNAFSQAPSTMQVSHSQVQEPGGVPQVFLTASSGTVQIPVSAVQLHQMAVIGQQAGSSSNLTELQVVNLDTAHSTKSE
Consider B2, for which the binding result with His-myocardin (human) was “binds”.
